Laboratory results from the M2OR odorant receptor database.
This is a selection; strong and weak results do not stand in their true shares. Calls are pooled over several reports, among them a noisy single-well screen. The list shows a part of the results.

Chains of the proteins cited; added tags and fusions are not shown. Chains listed by the source or under a name are the forms on record and can include a tag or linker.
OR7D4 C139Y, as listed by the source, stated change not applied: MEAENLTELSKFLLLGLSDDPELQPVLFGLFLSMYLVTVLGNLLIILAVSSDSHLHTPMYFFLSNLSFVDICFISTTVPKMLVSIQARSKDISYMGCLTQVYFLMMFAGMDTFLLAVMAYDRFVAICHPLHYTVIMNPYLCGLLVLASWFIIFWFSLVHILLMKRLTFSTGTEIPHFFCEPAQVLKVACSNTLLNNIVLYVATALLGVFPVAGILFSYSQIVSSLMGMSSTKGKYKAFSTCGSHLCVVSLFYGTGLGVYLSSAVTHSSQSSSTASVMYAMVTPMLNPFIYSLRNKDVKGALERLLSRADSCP
OR7C1, as listed by the source: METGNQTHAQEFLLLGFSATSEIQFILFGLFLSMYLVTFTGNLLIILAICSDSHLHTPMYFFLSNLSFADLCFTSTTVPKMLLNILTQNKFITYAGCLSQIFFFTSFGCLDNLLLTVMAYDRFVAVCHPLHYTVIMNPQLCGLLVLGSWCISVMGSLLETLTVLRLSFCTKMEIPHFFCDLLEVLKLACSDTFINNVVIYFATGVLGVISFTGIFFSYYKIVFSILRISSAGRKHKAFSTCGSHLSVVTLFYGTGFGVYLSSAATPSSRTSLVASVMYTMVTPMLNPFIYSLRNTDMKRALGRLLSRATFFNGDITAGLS
OR7D4 C139R, as listed by the source, stated change not applied: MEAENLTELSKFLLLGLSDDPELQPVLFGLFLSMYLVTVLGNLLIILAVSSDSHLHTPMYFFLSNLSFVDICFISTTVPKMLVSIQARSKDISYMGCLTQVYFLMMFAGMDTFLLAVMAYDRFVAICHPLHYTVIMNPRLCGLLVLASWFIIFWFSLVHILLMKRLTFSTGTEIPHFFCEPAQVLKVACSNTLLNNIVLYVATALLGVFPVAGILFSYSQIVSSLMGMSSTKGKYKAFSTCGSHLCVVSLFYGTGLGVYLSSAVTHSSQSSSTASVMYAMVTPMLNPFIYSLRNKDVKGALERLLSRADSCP
OR7D4 A279D, as listed by the source, stated change not applied: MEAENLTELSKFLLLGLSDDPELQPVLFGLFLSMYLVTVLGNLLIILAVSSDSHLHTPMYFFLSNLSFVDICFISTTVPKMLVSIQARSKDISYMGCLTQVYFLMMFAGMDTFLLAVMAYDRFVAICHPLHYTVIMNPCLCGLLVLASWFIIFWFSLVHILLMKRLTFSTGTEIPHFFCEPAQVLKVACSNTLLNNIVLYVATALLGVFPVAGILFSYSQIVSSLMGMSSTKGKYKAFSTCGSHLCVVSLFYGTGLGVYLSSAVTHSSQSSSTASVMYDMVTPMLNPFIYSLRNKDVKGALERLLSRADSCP

How the values were obtained:
Conditions in all cases: stereoisomer not certain
OR6V1 (Homo sapiens) = molecular target: T1, OR6V1 (Homo sapiens) (UniProt Q8N148)
T1 sequence (whole entry): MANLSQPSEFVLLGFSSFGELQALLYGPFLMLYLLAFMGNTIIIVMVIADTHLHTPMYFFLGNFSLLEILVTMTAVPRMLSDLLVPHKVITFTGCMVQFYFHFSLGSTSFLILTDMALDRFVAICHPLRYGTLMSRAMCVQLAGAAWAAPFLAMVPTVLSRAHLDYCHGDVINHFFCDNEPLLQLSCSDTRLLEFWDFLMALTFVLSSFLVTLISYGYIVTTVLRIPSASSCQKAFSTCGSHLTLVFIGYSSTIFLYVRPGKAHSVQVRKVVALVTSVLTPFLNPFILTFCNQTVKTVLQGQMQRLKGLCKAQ
Procedure, shortened: (§1)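 Assay methods differ from source to source, frequently being transient luciferase assays in mammalian cell lines. For each receptor–molecule pair, the label responsive (active) applies when the original authors judged the measured signal statistically different from baseline, and non-responsive (inactive) applies otherwise.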

OR6X1 (Homo sapiens) = molecular target: T2, OR6X1 (Homo sapiens) (UniProt Q8NH79)
T2 sequence (whole entry): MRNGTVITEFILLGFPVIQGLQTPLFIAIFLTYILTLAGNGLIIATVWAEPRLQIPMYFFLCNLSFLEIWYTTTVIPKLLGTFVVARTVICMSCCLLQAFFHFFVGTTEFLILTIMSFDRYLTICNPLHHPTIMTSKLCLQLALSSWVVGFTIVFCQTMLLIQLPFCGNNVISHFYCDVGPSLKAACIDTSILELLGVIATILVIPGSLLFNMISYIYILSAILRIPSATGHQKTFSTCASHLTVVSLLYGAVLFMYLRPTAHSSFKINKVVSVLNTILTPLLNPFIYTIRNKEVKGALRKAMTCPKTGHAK
Procedure, shortened: as §1

OR6Y1 = tested on: T3, OR6Y1
T3 sequence (whole entry): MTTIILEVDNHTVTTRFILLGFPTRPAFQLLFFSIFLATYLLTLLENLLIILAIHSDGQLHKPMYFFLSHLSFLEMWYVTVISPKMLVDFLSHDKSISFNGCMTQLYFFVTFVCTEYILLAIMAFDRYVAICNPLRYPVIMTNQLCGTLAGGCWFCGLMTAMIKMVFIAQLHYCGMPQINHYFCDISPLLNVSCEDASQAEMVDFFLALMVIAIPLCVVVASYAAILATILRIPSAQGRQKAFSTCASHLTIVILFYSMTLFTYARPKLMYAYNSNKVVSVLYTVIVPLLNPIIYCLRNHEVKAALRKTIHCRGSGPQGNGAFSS
Procedure, shortened: as §1

OR7A10 (Homo sapiens) = molecular target: T4, OR7A10 (Homo sapiens) (UniProt O76100)
T4 sequence (whole entry): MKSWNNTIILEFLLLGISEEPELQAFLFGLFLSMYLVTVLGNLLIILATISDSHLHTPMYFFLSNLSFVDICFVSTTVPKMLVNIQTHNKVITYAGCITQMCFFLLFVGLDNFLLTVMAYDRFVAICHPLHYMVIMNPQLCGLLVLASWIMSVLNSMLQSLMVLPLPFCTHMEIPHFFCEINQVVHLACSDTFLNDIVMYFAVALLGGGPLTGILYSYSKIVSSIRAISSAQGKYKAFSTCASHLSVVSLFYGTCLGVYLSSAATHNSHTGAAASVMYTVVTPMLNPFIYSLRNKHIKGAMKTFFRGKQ
Procedure, shortened: as §1

OR7A17 (Homo sapiens) = molecular target: T5, OR7A17 (Homo sapiens) (UniProt O14581)
T5 sequence (whole entry): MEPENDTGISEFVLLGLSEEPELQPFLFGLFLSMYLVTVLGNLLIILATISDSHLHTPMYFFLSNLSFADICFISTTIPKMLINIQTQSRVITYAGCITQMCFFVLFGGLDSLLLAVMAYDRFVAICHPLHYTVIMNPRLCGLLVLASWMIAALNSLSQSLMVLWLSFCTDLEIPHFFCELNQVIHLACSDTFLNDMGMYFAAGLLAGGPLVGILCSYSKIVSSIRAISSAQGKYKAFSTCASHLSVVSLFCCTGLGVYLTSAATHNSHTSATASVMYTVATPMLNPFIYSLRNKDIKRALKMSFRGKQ
Procedure, shortened: as §1

OR7A5 (Homo sapiens) = molecular target: T6, OR7A5 (Homo sapiens) (UniProt Q15622)
T6 sequence (whole entry): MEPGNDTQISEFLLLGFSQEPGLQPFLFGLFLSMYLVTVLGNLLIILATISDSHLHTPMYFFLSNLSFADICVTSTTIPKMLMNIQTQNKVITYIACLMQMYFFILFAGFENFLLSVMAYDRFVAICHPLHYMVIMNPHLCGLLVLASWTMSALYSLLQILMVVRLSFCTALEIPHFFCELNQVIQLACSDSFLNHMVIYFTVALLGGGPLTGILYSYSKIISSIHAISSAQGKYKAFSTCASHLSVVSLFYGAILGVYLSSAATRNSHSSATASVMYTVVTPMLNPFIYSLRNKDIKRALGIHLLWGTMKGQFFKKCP
Procedure, shortened: as §1

OR7C1 [1] = tested on: T7, OR7C1
T7 sequence (whole entry): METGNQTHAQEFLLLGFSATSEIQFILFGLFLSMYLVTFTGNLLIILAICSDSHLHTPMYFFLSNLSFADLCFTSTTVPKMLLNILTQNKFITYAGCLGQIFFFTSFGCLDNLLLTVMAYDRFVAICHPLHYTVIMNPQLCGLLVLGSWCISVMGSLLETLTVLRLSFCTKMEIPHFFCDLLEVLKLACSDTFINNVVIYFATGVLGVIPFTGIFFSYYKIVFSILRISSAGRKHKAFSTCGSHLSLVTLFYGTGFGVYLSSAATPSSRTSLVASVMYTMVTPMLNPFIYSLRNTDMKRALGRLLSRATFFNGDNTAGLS
Procedure, shortened: as §1

OR7C2 = tested on: T8, OR7C2
T8 sequence (whole entry): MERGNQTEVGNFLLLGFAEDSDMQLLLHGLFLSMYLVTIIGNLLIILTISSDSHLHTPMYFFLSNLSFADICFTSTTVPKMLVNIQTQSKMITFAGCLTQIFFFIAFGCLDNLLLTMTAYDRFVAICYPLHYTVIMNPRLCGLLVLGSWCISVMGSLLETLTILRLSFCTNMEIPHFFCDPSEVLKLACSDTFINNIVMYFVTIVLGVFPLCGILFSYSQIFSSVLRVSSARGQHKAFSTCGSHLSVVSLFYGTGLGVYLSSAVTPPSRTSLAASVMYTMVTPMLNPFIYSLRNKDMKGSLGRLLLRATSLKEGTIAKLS
Procedure, shortened: as §1

OR7D2 = tested on: T9, OR7D2
T9 sequence (whole entry): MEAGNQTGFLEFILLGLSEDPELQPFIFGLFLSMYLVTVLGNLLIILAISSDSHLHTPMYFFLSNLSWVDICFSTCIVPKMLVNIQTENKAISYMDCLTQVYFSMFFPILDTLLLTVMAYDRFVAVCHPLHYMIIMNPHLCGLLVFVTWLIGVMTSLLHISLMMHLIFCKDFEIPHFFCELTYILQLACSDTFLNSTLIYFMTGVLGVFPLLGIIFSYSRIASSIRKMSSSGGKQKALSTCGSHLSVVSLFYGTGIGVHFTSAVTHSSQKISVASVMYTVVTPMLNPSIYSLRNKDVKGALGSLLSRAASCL
Procedure, shortened: as §1

OR7D4 (Homo sapiens) = molecular target: T10, OR7D4 (Homo sapiens) (UniProt Q8NG98)
T10 sequence (whole entry): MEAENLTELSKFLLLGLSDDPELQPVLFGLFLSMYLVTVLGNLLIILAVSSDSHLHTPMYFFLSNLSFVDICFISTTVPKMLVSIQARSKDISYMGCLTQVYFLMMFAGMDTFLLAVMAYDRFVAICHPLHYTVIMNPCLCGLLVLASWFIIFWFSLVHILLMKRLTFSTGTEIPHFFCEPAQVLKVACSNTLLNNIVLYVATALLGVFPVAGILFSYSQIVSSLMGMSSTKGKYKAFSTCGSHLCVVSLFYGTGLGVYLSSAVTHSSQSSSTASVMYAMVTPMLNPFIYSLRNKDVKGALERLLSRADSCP
Procedure, shortened: as §1

OR6Y1 (Homo sapiens) = OR6Y1 (Homo sapiens) (UniProt Q8NGX8)
Procedure, shortened: as §1

OR7C1 (Homo sapiens) = OR7C1 (Homo sapiens) (UniProt O76099)
Procedure, shortened: as §1

OR7C1 [2] = tested on: OR7C1; remark: listed apart in the source
Procedure, shortened: as §1

OR7C2 (Homo sapiens) = OR7C2 (Homo sapiens) (UniProt O60412)
Procedure, shortened: as §1

OR7D2 (Homo sapiens) = OR7D2 (Homo sapiens) (UniProt Q96RA2)
Procedure, shortened: as §1

OR7D4 A279D = tested on: OR7D4 A279D
Procedure, shortened: as §1

OR7D4 C139R = tested on: OR7D4 C139R
Procedure, shortened: as §1

OR7D4 C139Y = tested on: OR7D4 C139Y
Procedure, shortened: as §1

Measured: odorant receptor agonist call

CC1=CCC(C(C)(C)O)CC1 (stereo not drawn)
active: OR6X1 (Homo sapiens)
inactive: OR6V1 (Homo sapiens) | OR6Y1 | OR7A10 (Homo sapiens) | OR7A17 (Homo sapiens) | OR7A5 (Homo sapiens) | OR7C1 [1] | OR7C2 | OR7D2 | OR7D4 (Homo sapiens)

CC12CCC(C1)C(C)(C)C2=O (stereo not drawn)
inactive: OR6V1 (Homo sapiens) | OR6X1 (Homo sapiens) | OR6Y1 | OR7A10 (Homo sapiens) | OR7A17 (Homo sapiens) | OR7A5 (Homo sapiens) | OR7C1 [1] | OR7C2 | OR7D2 | OR7D4 (Homo sapiens)

CC(C)CCC(=O)O
inactive: OR6V1 (Homo sapiens) | OR6X1 (Homo sapiens) | OR6Y1 | OR7A10 (Homo sapiens) | OR7A17 (Homo sapiens) | OR7A5 (Homo sapiens) | OR7C1 [1] | OR7C2 | OR7D2 | OR7D4 (Homo sapiens)

O=C1CCCCCCCCCCCC(=O)OCCO1
inactive: OR6V1 (Homo sapiens) | OR6X1 (Homo sapiens) | OR6Y1 | OR7A10 (Homo sapiens) | OR7A17 (Homo sapiens) | OR7A5 (Homo sapiens) | OR7C1 [1] | OR7C2 | OR7D2 | OR7D4 (Homo sapiens)

CC(C)C=O
inactive: OR6V1 (Homo sapiens) | OR6X1 (Homo sapiens) | OR6Y1 | OR7A10 (Homo sapiens) | OR7A17 (Homo sapiens) | OR7A5 (Homo sapiens) | OR7C1 [1] | OR7C2 | OR7D2 | OR7D4 (Homo sapiens)

CC12C=CCC1C1CCC3CC(=O)CCC3(C)C1CC2 (stereo not drawn)
active: OR7C1 [1] | OR7D4 (Homo sapiens) | OR7D4 C139R | OR7D4 C139Y
inactive: all other assays above
